Experimental data from patent US20050221400A1.
No constants are given. Whether binding was seen depends on the method and setting. Some results given as binding are weak or reduced against the parent protein; the word gives no strength.

Molecular target: Cynomolgus monkey PSCA (Cynomolgus monkey)
Assay: FACS on 293T cells expressing Cynomolgus monkey PSCA, anti-hIgG-PE

B1: Ha1-1.16 (antibody, V domains shown)
VH: QVQLQQSGPGLVKPSQTLSLTCAISGDSVSSNSAAWNWIRQSPSRGLEWLGRTYYRSKWYNGYAVSVKSRMTINPDTSKNQFSLQLNSVTPEDTAVYYCARERLGELYGMDVWGQGTTVTVSS
VL: QLTQSPDSLAVSLGERATINCKSSQNILYRSSKKNHLVWYQQKPGQPPKLLIYWASTRESGVPARFSGSGSGTDFTLTISTLQAEDVAVYYCQQYYSTPPTFGQGTRLEIKR
With B1 the binding was “binds”.
